No constants are given. Whether binding was seen depends on the method and setting. In cells and extracts the contact can be indirect. These calls come from enrichment with a bait or labelling near it, and not all partners need be listed.
Target: GFP-tagged human YAP (pEGFP C3-YAP2) (human) (UniProt P46937)
Assay: affinity purification with mass spectrometry; GFP-Trap-M beads, lysate of HEK293T cells transfected with GFP-YAP; lysis buffer 10 mM Tris-HCl pH 7.5, 150 mM NaCl, 0.5% NP-40, 0.5 mM EDTA; three washes; SDS-PAGE, in-gel trypsin digestion, Q-Exactive, MaxQuant iBAQ

Protein sequences, listed by entry. Tags and fused reporters are not part of them.
UniProt Q9NR12: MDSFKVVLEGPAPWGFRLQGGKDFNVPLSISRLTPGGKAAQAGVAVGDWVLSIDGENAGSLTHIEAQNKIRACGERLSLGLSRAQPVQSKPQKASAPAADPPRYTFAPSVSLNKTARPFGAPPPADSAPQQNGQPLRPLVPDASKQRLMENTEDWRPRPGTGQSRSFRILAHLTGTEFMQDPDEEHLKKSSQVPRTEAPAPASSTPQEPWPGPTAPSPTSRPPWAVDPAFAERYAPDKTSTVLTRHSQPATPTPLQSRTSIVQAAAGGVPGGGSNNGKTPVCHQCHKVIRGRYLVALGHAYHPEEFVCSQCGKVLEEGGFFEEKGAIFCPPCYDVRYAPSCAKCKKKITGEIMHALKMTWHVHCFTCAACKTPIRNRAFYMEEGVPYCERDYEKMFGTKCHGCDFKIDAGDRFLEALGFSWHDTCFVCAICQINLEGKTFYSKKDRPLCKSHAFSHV

binding: binds
Substance: PDLIM7 (Enigma) in HEK293T lysate (from UniProt Q9NR12 1-457)
